Assay results published in PubChem BioAssay AID588497 (NMMLSC, 2011).
The whole screen tested about 360,000 compounds, of which about 780 (0.22%) were called active. This list was built around the results that the source calls inconclusive (neither active nor inactive); the mix of calls is not that of the screen. Rule as the data show it: active = inhibition above about 35% (passing the limit was not always enough); inconclusive = no clear call, values can overlap the other calls.

tested on: Botulinum neurotoxin type F light chain protease (Clostridium botulinum); assay: BoNT/F light chain protease inhibitors, primary screen, biochemical, flow cytometry, MLPCN library (AID 588497); details: Multiplex microsphere protease cleavage assay, at 10 µM, stronger effect = higher value; also: plate controls were buffer without enzyme for full effect and enzyme alone for no effect

Row | Structure (SMILES) | inhibition
1 | O=C(O)C(Nc1nc(C(F)(F)F)nc2ccccc12)c1ccccc1 (stereo unspecified) | inconclusive: 4.2%
2 | N#Cc1c(C(F)(F)F)cc(-c2ccccc2)n(N)c1=O | inconclusive: -16.2%
3 | Cc1noc(-c2ccccc2)c1NC(=O)Nc1ccc(Cl)cc1 | inconclusive: -24.1%
4 | Cc1ccc(NS(=O)(=O)c2ccc(C(=O)N3CC(C)CC(C)C3)cc2)cc1 (stereo unspecified) | inconclusive: 3.8%
5 | COc1ccc(S(=O)(=O)N2CCN(C3CCCCCCC3)CC2)cc1 | inconclusive: 1.1%
6 | O=C(O)C1Cc2ccccc2CN1S(=O)(=O)c1ccc(Cl)cc1 (stereo unspecified) | inactive: -2.8%
7 | CC(C)Oc1ccc(OCCSc2nc3ccccc3n2CC(=O)O)cc1 | inconclusive: -4.5%
8 | CC(C)S(=O)(=O)c1csc(C(=O)Nc2ccc(F)cc2)c1N | inconclusive: -13.4%
9 | Oc1ccccc1C=Nc1cccc2ccccc12 | inconclusive: 39.6%
10 | COc1ccc(C2C(C(=O)c3cccs3)=C(O)C(=O)N2c2nnc(C)s2)cc1OC (stereo unspecified) | inactive: 5.2%
11 | Cc1cccc(-n2c(O)c(C=NC3CCS(=O)(=O)C3)c3ccccc3c2=O)c1C (stereo unspecified) | inconclusive: 22.7%
12 | COC(=O)c1ccc(CSc2nc(C(F)F)cc(C)c2C#N)o1 | inconclusive: -27.7%
13 | O=C(Nc1cccc(NC(=O)c2ccccc2[N+](=O)[O-])n1)c1ccccc1[N+](=O)[O-] | inconclusive: -52.2%
14 | CCOc1ccc(C(C(=O)NCCC(C)C)N(CCO)C(=O)c2snc(C(N)=O)c2N)cc1 (stereo unspecified) | inconclusive: -8.3%
15 | CC(=O)N1CCN(C(=O)CN2C(=O)NC(C)(c3ccc4ccccc4c3)C2=O)CC1 (stereo unspecified) | inconclusive: 14.8%
16 | CC1CCN(CC(O)Cn2c3ccccc3c3ccccc32)CC1 (stereo unspecified) | inconclusive: -21.2%
17 | COc1ccccc1/C=C/C=N/NC(=O)c1cc(-c2ccc(C)o2)[nH]n1 | inconclusive: -5.4%
18 | COc1cccc(-c2nnn(CCC(=O)O)n2)c1 | inactive: 2.9%
19 | Cc1ccc(NNC(=O)c2c(C)noc2C)cc1Cl | inconclusive: 10%
20 | CCCCCn1cnnc1SCC(=O)c1c(N)n(C2CC2)c(=O)[nH]c1=O | inconclusive: -8.2%
21 | CCCCc1nnc(NC(=O)c2ccc(N3CCCC3=O)cc2)s1 | inconclusive: -2.1%
22 | Clc1ccccc1C1=Nn2c(nnc2-c2ccco2)SC1 | inconclusive: -27.6%
23 | COc1ccc(/C=C2\Cc3ccccc3C2=O)cc1OC | inconclusive: 21.6%

Copied from the list.
For inhibition, Cc1ccc(NS(=O)(=O)c2ccc(C(=O)N3CC(C)CC(C)C3)cc2)cc1 (stereo unspecified) shows inconclusive: 3.8%
For inhibition, N#Cc1c(C(F)(F)F)cc(-c2ccccc2)n(N)c1=O shows inconclusive: -16.2%

Following part.

Row | Structure (SMILES) | inhibition
24 | CCOc1ccc(NC(=O)CN(C)C(=O)c2cccc3ccccc23)cc1OCC | inconclusive: -0.7%
25 | CCC1CCC(N2CCN(c3ccccc3F)CC2)CC1 (stereo unspecified) | inconclusive: 32.6%
26 | CCc1onc(C)c1C(=O)Nc1ccc(N2CCOCC2)cc1 | inactive: -22.9%
27 | Cc1ccc2nc(N(CCCN(C)C)C(=O)c3ccc4ncsc4c3)sc2c1 | inactive: 6%
28 | Cc1ccc(C2NC(=NCc3ccccc3)Nc3nc(C)cc(=O)n32)cc1 (stereo unspecified) | inconclusive: -5.6%
29 | S=C(c1ccc(-c2ccccc2)cc1)N1CCOCC1 | inconclusive: -37.1%
30 | Cc1ccc(CNS(=O)(=O)c2ccc(CN3C(=O)c4cccnc4C3=O)cc2)o1 | inactive: 1.4%
31 | COc1cccc2cc(C(=O)Oc3ccccc3)c(=O)oc12 | inconclusive: -7.6%
32 | OC(CNCc1ccccc1)Cn1ccc2ccccc21 (stereo unspecified) | inactive: -30.4%
33 | O=C(COC(=O)c1ccccc1Br)NCCc1ccc(F)cc1 | active: 42.8%
34 | N#C/C(=C\c1cc2c(cc1Br)OCO2)C(=O)NCC1CCCO1 (stereo unspecified) | inconclusive: 155%
35 | O=c1cc(C=NNc2ccccc2)[nH]c(=O)[nH]1 | inactive: -0.8%
36 | Cc1ccc(Cn2c(=O)c3ccccc3n3nc(C)cc23)cc1 | inactive: 0.9%
37 | Cc1c(C(=O)N(C)c2ccccc2Cl)cnn1-c1ccccc1 | inconclusive: 4%
38 | COc1cc2[nH]c(=O)n(CCC(=O)NCCCN3CCN(c4ccccc4F)CC3)c(=O)c2cc1OC | inactive: -1.8%
39 | COc1cccc(C2/C(=C(\O)c3ccc4c(c3)OCCO4)C(=O)C(=O)N2CCN(C)C)c1 (stereo unspecified) | inconclusive: -16.4%
40 | CCOC(=O)c1cnc(-n2nc(C)cc2C)nc1Oc1ccc(C#N)cc1 | inconclusive: 17.5%
41 | COC(=O)c1c(NC(=O)/C=C/c2ccco2)sc2c1CCC2 | inactive: 2%
42 | CSc1ccccc1NC(=O)c1ccccc1N(Cc1ccccc1)S(C)(=O)=O | inactive: 10.9%
43 | O=C(CC1C(=O)NCCN1C(=O)Nc1ccccc1)Nc1cc(Cl)cc(Cl)c1 (stereo unspecified) | inactive: -8.2%
44 | COc1ccc(/C=C2\SC(=O)N(CCC(=O)N3CCCCC3CCO)C2=O)cc1 (stereo unspecified) | inactive: -0.8%
45 | c1ccc(CSc2nncn2-c2ccccn2)cc1 | inactive: -1.5%
46 | CSc1nc(Nc2ccc(Cl)cc2)c(C#N)c(=O)[nH]1 | inconclusive: -38.6%

Row | Structure (SMILES) | inhibition
47 | Fc1ccc(-c2nc3ccc(Br)cn3c2Cc2cccc(Cl)c2)cc1 | inactive: 3.1%
48 | O=C1C(Cl)=C(N2CCOCC2)C(=O)N1c1ccccc1F | inconclusive: -7.6%
49 | COc1ccc(C2c3ccc4ccccc4c3Oc3ncn(CCCO)c(=N)c32)cc1 (stereo unspecified) | inconclusive: 94.6%
50 | NC(=O)C1CCN(c2oc(-c3ccccc3)nc2S(=O)(=O)c2ccc(Br)cc2)CC1 | inconclusive: 3.2%
51 | CC(C(=O)N1CCN=C1c1ccccc1)N1C(=O)c2ccccc2C1=O (stereo unspecified) | inconclusive: 3.3%
52 | COc1ccc(OC)c(S(=O)(=O)N2CCN(C(=O)CCc3ccccc3)CC2)c1 | inactive: -4.2%
53 | Cn1c(=O)n(CC(=O)O)c(=O)c2c1nc1n2CCCN1CCc1ccccc1 | inconclusive: 21.1%
54 | Cc1ccc2[nH]cc(/C=C/c3cc[n+](C)cc3)c2c1 | inconclusive: -11.8%
55 | O=C(Nc1ccc2c(c1)OCCO2)c1ccoc1 | inconclusive: 44.5%
56 | CS(=O)(=O)Nc1cccc(-c2cnc3ccccc3n2)c1 | inconclusive: -12.9%
57 | COc1cccc(/C=N/n2c(COc3ccccc3)n[nH]c2=S)c1 | inconclusive: -1.6%
58 | CCOC(=O)c1c(C)n(C)c2ccc(OC)c(NC(=O)CN3CCC(C(=O)OCC)CC3)c12 | inconclusive: 67.8%
59 | COc1ccc(CNC(=O)CSc2nnc(NC(=O)C3CC3)s2)cc1 | active: 34.9%
60 | CCOC(=O)C1=CCC(c2cccs2)N(S(=O)(=O)c2ccc(C)cc2)C1 (stereo unspecified) | inactive: -17.6%
61 | Cc1n[nH]c(C)c1S(=O)(=O)N(C)Cc1ccco1 | inactive: -4.4%
62 | Oc1ccc(Cl)cc1CNc1cnc2ccccc2c1 | inactive: -19.9%
63 | Cc1c(C)n(CCc2ccccc2)c2ncnc(NCCCO)c12 | inconclusive: -15.5%
64 | CCOC(=O)c1c(N/N=C/c2cccnc2)n[nH]c1C | inconclusive: -152%
65 | CCC(C)Nc1nc(N)c([N+](=O)[O-])c(NCCO)n1 (stereo unspecified) | inactive: -8.3%
66 | O=C(Nc1ccccc1Cl)OC1CN2CCC1CC2 (stereo unspecified) | inconclusive: -142%
67 | Cc1cccc(OC(=O)c2ccc3c(=O)n4c(nc3c2)CCC4)c1 | inactive: 1%
68 | COc1ccccc1C1CCN(C(=O)c2cnn(-c3ccccc3)c2C)CC1 | inconclusive: 63.1%
69 | c1ccc2c(Nc3nc(N4CCOCC4)c4ccccc4n3)cccc2c1 | inactive: 0%

Part of the list above, set out differently:
Row	Structure (SMILES)	inhibition
55	O=C(Nc1ccc2c(c1)OCCO2)c1ccoc1	inconclusive: 44.5%
56	CS(=O)(=O)Nc1cccc(-c2cnc3ccccc3n2)c1	inconclusive: -12.9%
57	COc1cccc(/C=N/n2c(COc3ccccc3)n[nH]c2=S)c1	inconclusive: -1.6%
58	CCOC(=O)c1c(C)n(C)c2ccc(OC)c(NC(=O)CN3CCC(C(=O)OCC)CC3)c12	inconclusive: 67.8%
59	COc1ccc(CNC(=O)CSc2nnc(NC(=O)C3CC3)s2)cc1	active: 34.9%

(listing goes on)

Row | Structure (SMILES) | inhibition
70 | COCCNC(=O)CN1C2CCC1CC(O)(c1cccnc1)C2 (stereo unspecified) | inconclusive: 6.2%
71 | C[C@H]1CN([C@@H](C)CO)C(=O)c2cc(Br)cnc2O[C@@H]1CN(C)S(=O)(=O)c1cn(C)cn1 | inactive: 5%
72 | O=C(O)c1ccc(S(=O)(=O)Nc2ccc3c(c2)OCCO3)cc1 | inconclusive: -9.1%
73 | CC1=Nc2ccccc2/C1=C/c1c(O)[nH]c(=O)[nH]c1=O | inconclusive: -67.8%
74 | COc1ccc(C2CN=NC23CCc2ccccc2C3=O)cc1 (stereo unspecified) | inconclusive: 23.9%
75 | O=C(COC(=O)c1ccccc1OCc1ccccc1Cl)NC1CC1 | inconclusive: -35.8%
76 | CN1CCN(c2ccc(CNC(=O)c3ccc4c(c3)OCCO4)cc2)CC1 | inconclusive: -42.5%
77 | COc1ccc(-c2onc3ccc(C(=O)/C=C/N(C)C)cc23)cc1 | active: 44.9%
78 | Cc1ccc(O)c(NC(=S)NC(=O)c2ccccc2Cl)c1 | active: 38.1%
79 | CCOc1ccccc1NC(=O)C1CCN(S(C)(=O)=O)CC1 | inconclusive: -38.5%
80 | COCCN(C(=O)COC(=O)CCOc1ccccc1C)c1c(N)n(Cc2ccccc2)c(=O)[nH]c1=O | inconclusive: -7.3%
81 | C/C(=N\NC(=O)c1cnccn1)c1ccc([N+](=O)[O-])cc1 | inconclusive: 84.5%
82 | Cc1nc(/N=C(\N)N(C)C)[nH]c(=O)c1C | inconclusive: 4.8%
83 | C/C(=N\NC(=O)c1c[nH]c2ccccc12)c1ccc(C)s1 | inactive: -6.8%
84 | Nc1c(S(=O)(=O)c2cccs2)c2nc3ccccc3nc2n1Cc1ccc2c(c1)OCO2 | inactive: -0.5%
85 | CN(CCc1ccccc1)C(=O)c1cccc(NC(=O)Cc2cccc(NC(=O)C3CCCN(C(=O)C4CC4)C3)c2)c1 (stereo unspecified) | inactive: -3.7%
86 | CCc1nc2ccc(C(=O)N3CCN(C)CC3)cn2c1N(CCC(C)C)CCN(C)C | inactive: -8%
87 | O=C(CCS(=O)(=O)c1cc(Br)cc2c1N(C(=O)C1CC1)CC2)NCc1ccco1 | inconclusive: 29.2%
88 | COc1cccc(Cn2c(=O)c3[nH]cnc3n(-c3ccccc3C)c2=O)c1 | inconclusive: 40.2%
89 | O=C(CCc1ccccc1)NNC(=O)c1ccc(NC(=O)c2ccccc2)cc1 | inactive: -24.2%
90 | CCOC(=O)c1sc(=S)n(C)c1NC(=O)c1ccc(C(C)(C)C)cc1 | inconclusive: 28.4%
91 | Cc1c(Cl)cccc1NC(=S)NCc1ccc(F)cc1 | inconclusive: 8%
